The source of these data is patent US12268749B2 (Oxford University Innovation Limited, priority 2018, dated 2025).

A short description of this data set: general procedure: Fmoc solid-phase peptide synthesis; Fmoc-β-Ala-OH preloaded Wang resin (0.19 or 0.46 mmol g−1); PyBOP/NMM (Intavis); PyBOP/DIPEA (CEM); conjugation PyBOP/HOAt/DIPEA or HBTU. To be noted: conjugation step.

Substance Ac-RBRBRFQILYRBRRBRR-B yielded a conjugation yield of 24%. The substance further registered a conjugation yield (based on PMO) of 24%.

On to Ac-RBRRBRRYQFLIRBRBR-B, for which the conjugation yield is 24%.
